Assay results as given in paper doi:10.1101/2020.10.06.328641.
No constants are given. Whether binding was seen depends on the method and setting. Binding seen in cells or lysates may run through a third protein. Binding calls can cover weak binding; strength is not graded here.

Biological target: T1, KSHV ORF59, DNA polymerase processivity factor (KSHV (human herpesvirus 8), BAC16 in iSLK cells) (UniProt F5HID2)
T1 sequence: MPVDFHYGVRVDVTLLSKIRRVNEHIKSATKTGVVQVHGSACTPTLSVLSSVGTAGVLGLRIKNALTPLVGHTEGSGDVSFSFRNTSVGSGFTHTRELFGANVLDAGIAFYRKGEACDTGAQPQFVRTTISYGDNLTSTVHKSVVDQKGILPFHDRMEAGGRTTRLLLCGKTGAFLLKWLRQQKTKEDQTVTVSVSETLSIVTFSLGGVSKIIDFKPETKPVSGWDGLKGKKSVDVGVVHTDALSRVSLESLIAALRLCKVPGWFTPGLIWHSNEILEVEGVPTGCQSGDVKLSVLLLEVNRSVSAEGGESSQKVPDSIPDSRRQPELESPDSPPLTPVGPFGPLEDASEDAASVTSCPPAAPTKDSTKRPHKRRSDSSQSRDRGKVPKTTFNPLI
Assay: co-IP

KSHV ORF20 protein
binding: binds
